Percent effect of library compounds

Chains of the proteins cited; added tags and fusions are not shown. Residues count along the entry.
UniProt P9WPC5, whole entry: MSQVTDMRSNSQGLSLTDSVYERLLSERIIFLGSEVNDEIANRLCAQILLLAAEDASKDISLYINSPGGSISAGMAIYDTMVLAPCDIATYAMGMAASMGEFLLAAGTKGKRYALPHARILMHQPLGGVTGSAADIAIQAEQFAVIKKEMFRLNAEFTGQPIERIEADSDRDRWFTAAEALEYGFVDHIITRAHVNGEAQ
UniProt P9WPC3, whole entry partner: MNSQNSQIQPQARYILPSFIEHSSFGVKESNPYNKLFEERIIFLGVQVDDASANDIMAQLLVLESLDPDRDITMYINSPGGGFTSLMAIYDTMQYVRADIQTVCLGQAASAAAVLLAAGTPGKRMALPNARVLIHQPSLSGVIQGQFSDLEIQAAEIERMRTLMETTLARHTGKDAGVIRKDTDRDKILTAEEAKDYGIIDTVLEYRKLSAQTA
UniProt P9WNZ1, whole entry: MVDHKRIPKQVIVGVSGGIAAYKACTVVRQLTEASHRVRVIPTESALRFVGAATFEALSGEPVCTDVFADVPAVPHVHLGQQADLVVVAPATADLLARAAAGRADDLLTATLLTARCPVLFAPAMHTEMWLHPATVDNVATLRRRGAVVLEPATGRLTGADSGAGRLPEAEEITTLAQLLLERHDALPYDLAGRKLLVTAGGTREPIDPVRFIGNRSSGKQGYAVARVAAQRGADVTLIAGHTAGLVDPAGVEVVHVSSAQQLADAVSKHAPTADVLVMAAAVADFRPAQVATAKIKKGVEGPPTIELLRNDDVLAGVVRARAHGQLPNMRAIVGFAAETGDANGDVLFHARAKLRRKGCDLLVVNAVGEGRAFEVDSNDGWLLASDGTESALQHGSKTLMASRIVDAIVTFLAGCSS
UniProt A4I591, 1-473: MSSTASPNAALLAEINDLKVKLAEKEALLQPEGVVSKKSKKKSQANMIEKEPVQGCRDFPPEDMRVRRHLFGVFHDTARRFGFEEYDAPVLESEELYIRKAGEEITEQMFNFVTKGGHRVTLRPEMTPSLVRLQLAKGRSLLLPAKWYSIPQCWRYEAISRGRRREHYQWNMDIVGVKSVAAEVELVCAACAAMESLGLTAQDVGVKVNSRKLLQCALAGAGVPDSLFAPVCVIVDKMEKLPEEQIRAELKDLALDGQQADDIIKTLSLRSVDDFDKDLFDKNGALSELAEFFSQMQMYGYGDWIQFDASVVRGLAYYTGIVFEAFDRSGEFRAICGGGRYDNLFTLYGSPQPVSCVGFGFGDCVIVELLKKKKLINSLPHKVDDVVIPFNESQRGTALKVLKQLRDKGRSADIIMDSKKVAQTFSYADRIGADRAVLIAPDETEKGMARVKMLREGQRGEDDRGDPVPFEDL

Data taken from ChEMBL document CHEMBL3988442, “University of Dundee, Small-Polar-MMV Screening Library” (2021).

ClpP1P2: 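ClpP1P2, Mycobacterium tuberculosis (UniProt P9WPC5 and UniProt P9WPC3). Protease assay of ClpP1P2, read by the AMC dye that it sets free. Concentration: 50 µM. Higher reads as stronger inhibition, judged from the few compounds that gave an IC50. Most other retested compounds had strongly negative values. Size under these conditions: about 69,000 compounds, about 10 of them at 50% or above in at least one test.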
CoaBC: 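Coenzyme A biosynthesis protein CoaBC, Mycobacterium tuberculosis (UniProt P9WNZ1). Enzyme assay of CoaBC with a phosphate dye (Biomol Green) read at 650 nm. Tested at 30 µM. Direction is inferred from only a few compounds that gave an IC50; most scored high, so higher reads as stronger inhibition. Most strong results did not repeat in a second test. About 67,000 compounds were tested under these conditions; 0.06% (about 40) showed 50% or more at least once.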
Leishmania in macrophages: 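Cell assay of Leishmania donovani living inside macrophages; the read-out is not stated. Tested at 30 µM. Higher reads as stronger inhibition (inferred: compounds with an IC50 in retests scored well above the rest). Of about 69,000 compounds tested this way, about 1,000 (1.5%) reached 50% or more in at least one test.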
LiHisRS: 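Enzyme assay of histidyl-tRNA synthetase; the read-out is not stated. Target: Histidine-tRNA ligase, Leishmania infantum (UniProt A4I591). Compounds at 30 µM. Higher reads as stronger inhibition (inferred: compounds with an IC50 in retests scored well above the rest). The assay is labelled LdHisRS but filed under L. infantum. Size under these conditions: about 69,000 compounds, about 410 of them at 50% or above in at least one test.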

The filed quantity is “Percent Effect” (%). How 0% and 100% were set is not recorded. Most values in the screen are low, and negative values occur. The compounds are a random part of those screened. Two or more numbers in one place are separate tests of the same structure; such repeats can differ widely. A dash means the value is not listed here; it may have been measured.

structure	ClpP1P2	CoaBC	Leishmania in macrophages	LiHisRS
Cc1ccc(N(C)C2CCN(C(=O)c3n[nH]c4c3CCC4)CC2)nn1	-0.3371	3.125	15.78	8.333
COc1cc(CNC(C)Cn2cccn2)cc(OC)c1OC.Cl (configuration not stated)	-	-	-1.802	-
CC(C)c1sc(Br)nc1C(=O)NCc1ccco1	-8.355	4.603	0.9295	20.83
Cc1csc(N2CCN(C(=O)C3(C#N)CCCCC3)CC2)n1	-9.246	8.238	14.76	16.07
CCOC(=O)CCCc1ccc2c(c1)CC(=O)N2	1.605	1.739	34.44	2.618
CC1CCN(S(=O)(=O)c2ccc(C(=O)N3CCSCC3)cc2)CC1	-12.55	-4.245	2.628	1.099
CC(=O)N1CCC2(CC1)CNc1c(F)cccc12	-0.8364	1.707	-	16.98
O=C(O)C(F)(F)F.O=C(O)C(F)(F)F.[H][C@@]12CN(Cc3ccccn3)C[C@H](C(=O)Nc3cccnc3)[C@]1([H])CCO2	-	-	28.33	-
Cc1ccc(CNCc2cccc3cccnc23)c(OC2CCOC2)c1 (configuration not stated)	10.23	-34.05	-1.505	44.83
CCn1c(CN(C)C)nnc1C1CCN(Cc2ccncc2)CC1	-12.18	3.257	-20.45	10.4
[H][C@]12CN(S(=O)(=O)c3ccc(C(=O)NCCSCC)cc3)[C@]([H])(CN1)C2	-	-	12.2	-
COc1ccc(-c2n[nH]c(C)c2CC(=O)NCC2CCCO2)cc1 (configuration not stated)	15.05	-2.066	43.81	17.39
O=C(O)C(F)(F)F.O=C(O)C(F)(F)F.[H][C@@]12COC[C@]1(COCC1CC1)CN(Cc1ccncc1)C2	-	-	-3.716	-
O=C(O)C(F)(F)F.[H][C@]12CN(Cc3ccccc3F)C[C@@]1([H])OCCN(C(C)=O)C2	-	-	6.292	-
COc1ccc(NC(=O)N2CCN(c3ncccn3)CC2)cn1	-7.291	-0.2132	4.725	19.23
CCn1ccnc1CN1CCN(CC(O)c2ccccc2)CC1 (configuration not stated)	-6.603	1.295	33.37	6.383
Cc1csc(CCNC(=O)N2CCC(NC(=O)OC(C)(C)C)CC2)n1	4.558	2.166	-5.066	2.073
Cc1cc(C)c2c(N(C)CC3CCN(CC(C)C)C3)ncnc2n1 (configuration not stated)	-8.86	5.466	24.82	14.29
CCN1C[C@@H]2[C@@H](OC)CCN(S(=O)(=O)c3cccnc3)[C@@H]2C1	-5.178	6	-	20
Cn1cc(CN2CCc3c(COCC4CC4)cncc3C2)cn1	1.059	-5.057	-	9.589
C=C(C)CN(CC)C(=O)c1cc(F)ccc1N1CCN(C)CC1	-19.92	1.937	25.14	13.04
COCCNC(=O)[C@H]1C[C@@H]2CCN(Cc3ccoc3)C[C@H]2O1	-6.572	6.684	-	6.015
O[C@@H]1CN(Cc2ccncc2)C[C@H]1Oc1ccccc1	-3.098	1.453	3.902 & -4.181	-4.124
CN1CCCN(C[C@@H]2CN(C(=O)CC3CCC3)C[C@@H]2CO)CC1	-15.07	4.569	14.88	20
O=C(NC1CC1)[C@H]1CN(Cc2ccc3c(c2)OCO3)C[C@H]2OCC[C@@H]12	-1.593	-0.8333	-	17.95
Cc1ccc2nc(C)c(C)c(C(=O)N3CCC4(CCO4)CC3)c2c1	-1.689	-1.285	10.1	4.167
COc1ccc([C@@H]2C[C@H](NC(C)=O)C[C@H](CCc3ccccc3)O2)cn1	-3.151	2.828	22.12	3.125
Cn1c2ccccc2c2ncn(CCN3CCOCC3)c(=O)c21	3.645	0	-2.888	-2.174
CCc1nc(N)nc(N(C)Cc2nncn2CCOC)c1C	-3.199	-1.222	4.678	0
O=C(CCn1cccn1)N1C[C@@H]2CC[C@H](C1)N(Cc1ccccn1)C2=O	-8.712	-7.889	-	25
Cc1cc2ccccc2n1CCC(=O)N1CCCC1Cn1cccn1 (configuration not stated)	-6.765	-4.104	18.14	0
Cc1cccc(OC2CN(C(=O)C3CC(=O)N(C(C)(C)C)C3)C2)c1 (configuration not stated)	-2.092	8.28	46.08	11.5
CCN(CC)S(=O)(=O)c1cc2c3c(c1)c(C)cc(=O)n3CC2	34.44	1.051	6.187	8.696
Cc1nc(CCN)cc(N2CCOc3ccc(Cl)cc3C2)n1	-6.925	7.598	63.66	46.67
Cc1ccc(-c2nn(-c3cccc(F)c3)cc2CN(CCO)CCO)o1	-1.466	2.581	19.68	25
Cc1sc(CN)nc1-c1ccc(Cl)cc1Cl	-16.57	1.631	34.98	8.475
COCc1cncc2c1CCN(C(=O)c1ccc(C#N)cc1)C2.O=C(O)C(F)(F)F	-	-	1.176	-
COc1cccc(Cl)c1C(C(=O)O)N(C)Cc1c(C)n[nH]c1C (configuration not stated)	-10.61	4.305	13.26	16.13
CC(C)C(C)N(C(=O)c1cc2c([nH]c1=O)CCCC2=O)C1CC1 (configuration not stated)	0.3767	1.225	4.487	15.56
Cc1nc(C)n(CC2CCCN2CC(=O)NCCc2cccs2)n1 (configuration not stated)	0.6688	6.962	-8.754	22.89

Some entries from above, unchanged:

| structure | ClpP1P2 | CoaBC | Leishmania in macrophages | LiHisRS |
|---|---|---|---|---|
| `[H][C@]12CN(S(=O)(=O)c3ccc(C(=O)NCCSCC)cc3)[C@]([H])(CN1)C2` | - | - | 12.2 | - |
| `Cc1ccc(-c2nn(-c3cccc(F)c3)cc2CN(CCO)CCO)o1` | -1.466 | 2.581 | 19.68 | 25 |
| `CCN1C[C@@H]2[C@@H](OC)CCN(S(=O)(=O)c3cccnc3)[C@@H]2C1` | -5.178 | 6 | - | 20 |